Test results from article PMC7585203.
These are yes or no findings as the source states them, for the method shown. A result given as binding can be weak or reduced; the word gives no strength.

Target: GST-tagged UHRF1 Tudor domain printed on the protein reader domain microarray (not stated (printed UniProt entry is human))
Experiment: peptide or protein array; protein reader domain microarray: 308 GST-tagged domains printed in duplicate on nitrocellulose-coated glass slides; C-terminally biotinylated peptides labelled with Cy3- (methods, legend) or Cy5- (results) streptavidin, 100 µg peptide in 1.8 mL PBST with 3% milk and 3% …; saturating peptide concentrations; both purified

In the case of IPKRRTARKQLPK (C-terminal biotin (complexed with Cy3/Cy5-streptavidin)) [biotinylated LIG1(118–130)K126me0 peptide], the binding is reported as “binds”.
